Laboratory results: PubChem BioAssay AID652272 (Drosophila RNAi Screening Center, 2013)

- Test: 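Genes whose knock-down decreases or increases Hedgehog reporter output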 (primary screen)
- Cell system: Drosophila clone 8 (Cl8) cells
- Reagents: long dsRNA against Drosophila genes
- Measured: 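Plate reader light from a firefly reporter under a ptc promoter fragment that responds to Hedgehog, with Renilla light as transfection reference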
- Reading the numbers: firefly Hh reporter signal: higher = more ptc reporter light; Renilla reference signal: higher = more Renilla control light
- Rule for the call: 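Hit when the z-score averaged over two replicates is under -2 or over +3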
- Meaning of the calls: active = hit: reporter lowered or raised; inactive = not a hit
In all, the deposit lists about 21,000 reagents; this is a random part of those with a known target gene and a result. In the full data, 503 (2.4%) are marked active. 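Raw plate light values, not normalised; calls rest on replicate z-scores that were not deposited; hits include reporter decreases as well as increases.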 A plus sign joins genes that one reagent is predicted to hit. The record does not give: the amount of reagent, the time to read-out.

no.	gene	dsRNA	firefly Hh reporter signal, replicate 1	firefly Hh reporter signal, replicate 2	firefly Hh reporter signal, replicate 3	Renilla reference signal, replicate 1	Renilla reference signal, replicate 2	activity call
1	ng1	DRSC18802	92816	2.83e5		3383	9030	inactive
2	CG18493	DRSC15334	5.79e5	85322		28676	2400	inactive
3	CG43897	DRSC10173	69462	59462	46881	3827	2202	active
4	CG43897	DRSC10965	36535	21537	23805	3015	1561	inactive
5	CG43897	DRSC10967	33697	56336	79574	5785	5280	inactive
6	Ccz1	DRSC08439	69779	32100		2026	2779	inactive
7	CG8343	DRSC04905	1.44e5	62784		5840	3044	inactive
8	FoxP	DRSC15159	77365	1.35e5		2135	3296	inactive
9	CG33337	DRSC13632	41513	6.12e5	2.21e5	11249	5313	inactive
10	MBD-R2	DRSC14180	62328	1.13e5		1104	1424	active
11	h-cup + Rbp	DRSC14990	1.28e5	1.05e5		4043	2709	inactive
12	tow	DRSC10192	9841	8929		1623	816	inactive
13	Cdk2	DRSC16921	1.45e5	78965		6184	3429	inactive
14	CG1504	DRSC20513	42125	82936		1148	4902	inactive
15	CG34302	DRSC12751	1.60e5			2369		inactive
16	Ns3	DRSC18607	1.17e5	1.05e5		3093	3655	inactive
17	Strip	DRSC08194	57092	37785		3202	2026	inactive
18	mia	DRSC12137	1.08e5	65768		4140	2600	inactive
19	CG11509 (retired record)	DRSC17788	1.22e5	97702		1536	2912	inactive
20	Blm + CG14721	DRSC14943	90263	1.04e5		2929	3205	inactive
21	Wnk	DRSC11813	51243	30418		1755	1157	inactive
22	Mat1	DRSC07465	79808	38272		2006	3616	inactive
23	eloF	DRSC15162	71223	1.16e5		2400	3170	inactive
24	CG33722 + CG18749	DRSC12674	1.36e5			3081		inactive
25	CG33722 + CG18749	DRSC15386	83124	96669		3179	2837	inactive
26	CG3123	DRSC00570	1.17e5	95286		2624	2525	inactive
27	CG33791 + CG18170	DRSC08523	1.41e5	60364		5628	4408	inactive
28	CG33791 + CG18170	DRSC08601	90220	31101		3417	2641	inactive
29	CG2200	DRSC19840	77744	1.56e5		1833	6242	inactive
30	Scgdelta	DRSC18544	73446	2.65e5		2058	10529	inactive
31	CG8180	DRSC07092	97030	86728		5067	3600	inactive
32	CG8180	DRSC07093	91763	49133		1930	2588	inactive
33	Nurf-38	DRSC04629	58923	57373		1196	5227	inactive
34	fd3F	DRSC17843	31988	26877		2121	1104	inactive
35	chp	DRSC16925	80358	1.08e5		1360	3232	inactive
36	CG31683 + CG18858	DRSC02703	1.12e5	63368		2960	5992	inactive
37	ND-49	DRSC17151	1.00e5	1.63e5		3658	5733	inactive
38	Atg14	DRSC14421	84183	66120		1724	1936	inactive
39	Mrp4	DRSC14931	1.22e5	1.80e5		3575	8768	inactive
40	Wnt6	DRSC02795	1.76e5	81320		5313	7321	inactive
41	CG31883	DRSC02561	1.06e5	1.04e5		5050	4407	inactive
42	Bet3	DRSC10388	70493	41933	53504	5469	4753	inactive
43	HLH4C	DRSC18670	1.32e5	5.91e5	4.05e5	3761	2994	inactive
44	ebd1	DRSC08565	1.47e5	65033		6097	2626	inactive
45	CG1307	DRSC12492	1.20e5	85776		4393	3506	inactive
46	Or46a + asRNA:CR43467	DRSC07489	1.21e5	75360		3217	6596	inactive
47	Or46a + asRNA:CR43467	DRSC07490	83495	62636		2006	4635	inactive
48	Or67a	DRSC11240	29308	42556	72512	4506	5354	inactive
49	Fbl6	DRSC06335	81654	59372		3043	1964	inactive
50	CG6472	DRSC06989	72972	34605		2048	3104	inactive
51	psd	DRSC03131	1.67e5	54402		4198	5920	inactive
52	CG3565	DRSC04389	75425	70025		3576	2971	inactive
53	CG31156	DRSC15753	1.14e5	97248		4999	3437	inactive
54	CG31156	DRSC15755	5.21e5	1.15e5		26577	3136	inactive
55	mop	DRSC11065	59200	49082		2624	2139	inactive
56	Cyp4ad1	DRSC07369	1.04e5	64068		4244	2743	inactive
57	Obp56d	DRSC06064	73816	52224		2176	4016	inactive

6 of these entries, reformatted:
gene	dsRNA	firefly Hh reporter signal, replicate 1	firefly Hh reporter signal, replicate 2	firefly Hh reporter signal, replicate 3	Renilla reference signal, replicate 1	Renilla reference signal, replicate 2	activity call
Atg14	DRSC14421	84183	66120		1724	1936	inactive
Mrp4	DRSC14931	1.22e5	1.80e5		3575	8768	inactive
Wnt6	DRSC02795	1.76e5	81320		5313	7321	inactive
CG31883	DRSC02561	1.06e5	1.04e5		5050	4407	inactive
Bet3	DRSC10388	70493	41933	53504	5469	4753	inactive
HLH4C	DRSC18670	1.32e5	5.91e5	4.05e5	3761	2994	inactive
